Measurements: the supplement of paper PMC8104966
± gives the standard deviation of the averaged measurements. This is one part of the list. Single values are uncertain here, since repeats match poorly.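 U2OS cells expressing ACE2 were combined with U2OS cells expressing full-length spike, and imaging quantified fusion as the fraction of nuclei displaying both cell types' fluorescent markers. Non-toxic compounds with a fusion z-score under -3, i.e., over three standard deviations below the plate's DMSO wells, are called inhibitory hits.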

system: U2OS ACE2 x SARS-CoV-2 spike co-culture; assay: cell-cell fusion (fraction fused) z-score vs plate DMSO control; higher = more fusion; conditions: 30 µM; 5 h; toxicity class: non-toxic, passed QC

Compound | cell-cell fusion (z-score)
Cc1ccccc1N1C(=O)c2cc(S(N)(=O)=O)c(Cl)cc2NC1C (stereo not given) | inactive: 3.25
COc1ccc(-c2cc[c+](N)n(CCCC(=O)O)n2)cc1.[Br-] | inactive: 2.63
C[C@H](Cn1cnc2c(N)ncnc21)OCP(=O)(O)O.NCCO | inactive: 1.33
CC(C(=O)O)c1cccc(C(=O)c2ccccc2)c1 (stereo not given) [Ketoprofen] | inactive: 2.87
[O-][n+]1ccccc1[S-].[O-][n+]1ccccc1[S-].[Zn+2] | inactive: 0.952
COc1cc([C@@H]2c3cc4c(cc3[C@H](OC(C)=O)[C@H]3COC(=O)[C@@H]23)OCO4)cc(OC)c1OC | inactive: 2.27
COCCc1ccc(OCC(O)CNC(C)C)cc1.COCCc1ccc(OCC(O)CNC(C)C)cc1.O=C(O)C(O)[C@H](O)C(=O)O (racemic) [(±)-Metoprolol (+)-tartrate] | inactive: 1.88
O=C(Oc1cccc2cccnc12)c1ccccc1 | inactive: 3.94
CC1(C)O[C@@H]2C[C@H]3[C@@H]4C[C@H](F)C5=CC(=O)C=C[C@]5(C)[C@@]4(F)[C@@H](O)C[C@]3(C)[C@]2(C(=O)CO)O1 [Fluocinolone acetonide] | inactive: 0.986
O=C(O)c1cc(O)c2ccccc2n1 | inactive: 3
Cl.N=C(N)NC(=N)NCCc1ccccc1 | inactive: 1.3
CC[C@H]1C2CC3[C@@H]4N(C)c5ccccc5[C@]45C[C@@H](C2C5O)N3[C@@H]1O (stereo not given in full) | inactive: 1.72
C[N+]1(C)CCCC(OC(=O)C(O)(c2ccccc2)c2ccccc2)C1.[Br-] (stereo not given) [Mepenzolate Bromide] | inactive: 2.82
O=S(=O)(OC[C@H]1O[C@@](COS(=O)(=O)[O][Al]([OH])[OH])(O[C@H]2O[C@H](COS(=O)(=O)[O][Al]([OH])[OH])[C@@H](OS(=O)(=O)[O][Al]([OH])[OH])[C@H](OS(=O)(=O)[O][Al]([OH])[OH])[C@H]2OS(=O)(=O)[O][Al]([OH])[OH])[C@@H](OS(=O)(=O)[O][Al]([OH])[OH])[C@@H]1OS(=O)(=O)[O][Al]([OH])[OH])[O][Al]([OH])[OH].[OH][Al]([OH])[OH].[OH][Al]([OH])[OH].[OH][Al]([OH])[OH].[OH][Al]([OH])[OH].[OH][Al]([OH])[OH].[OH][Al]([OH])[OH].[OH][Al]([OH])[OH].[OH][Al]([OH])[OH] | inactive: 2.2
CCn1cc(C(=O)O)c(=O)c2cc3c(cc21)OCO3 [Oxolinic acid] | inactive: 2.01
Cc1cc2nc3c(=O)[nH]c(=O)nc-3n(C[C@@H](O)[C@@H](O)[C@@H](O)COP(=O)([O-])O)c2cc1C.[Na+] | inactive: 2.14
COc1c(O)cc2c(c1O)[C@H]1O[C@H](CO)[C@@H](O)[C@H](O)[C@@H]1OC2=O | inactive: 1.24
NC(=O)OCC(COC(N)=O)c1ccccc1 [Felbamate] | inactive: 2.71

A second format for some results above:
Compound	cell-cell fusion (z-score)
O=C(Oc1cccc2cccnc12)c1ccccc1	inactive: 3.94
CC1(C)O[C@@H]2C[C@H]3[C@@H]4C[C@H](F)C5=CC(=O)C=C[C@]5(C)[C@@]4(F)[C@@H](O)C[C@]3(C)[C@]2(C(=O)CO)O1 [Fluocinolone acetonide]	inactive: 0.986
O=C(O)c1cc(O)c2ccccc2n1	inactive: 3
Cl.N=C(N)NC(=N)NCCc1ccccc1	inactive: 1.3
CC[C@H]1C2CC3[C@@H]4N(C)c5ccccc5[C@]45C[C@@H](C2C5O)N3[C@@H]1O (stereo not given in full)	inactive: 1.72
C[N+]1(C)CCCC(OC(=O)C(O)(c2ccccc2)c2ccccc2)C1.[Br-] (stereo not given) [Mepenzolate Bromide]	inactive: 2.82
O=S(=O)(OC[C@H]1O[C@@](COS(=O)(=O)[O][Al]([OH])[OH])(O[C@H]2O[C@H](COS(=O)(=O)[O][Al]([OH])[OH])[C@@H](OS(=O)(=O)[O][Al]([OH])[OH])[C@H](OS(=O)(=O)[O][Al]([OH])[OH])[C@H]2OS(=O)(=O)[O][Al]([OH])[OH])[C@@H](OS(=O)(=O)[O][Al]([OH])[OH])[C@@H]1OS(=O)(=O)[O][Al]([OH])[OH])[O][Al]([OH])[OH].[OH][Al]([OH])[OH].[OH][Al]([OH])[OH].[OH][Al]([OH])[OH].[OH][Al]([OH])[OH].[OH][Al]([OH])[OH].[OH][Al]([OH])[OH].[OH][Al]([OH])[OH].[OH][Al]([OH])[OH]	inactive: 2.2
CCn1cc(C(=O)O)c(=O)c2cc3c(cc21)OCO3 [Oxolinic acid]	inactive: 2.01
Cc1cc2nc3c(=O)[nH]c(=O)nc-3n(C[C@@H](O)[C@@H](O)[C@@H](O)COP(=O)([O-])O)c2cc1C.[Na+]	inactive: 2.14
COc1c(O)cc2c(c1O)[C@H]1O[C@H](CO)[C@@H](O)[C@H](O)[C@@H]1OC2=O	inactive: 1.24

(list continues)

Compound | cell-cell fusion (z-score)
COC(=O)c1cc(OC)c(=O)c2c(OC)c(OC)ccc2c1 | inactive: -0.461
CC[C@@H](C(=O)O)[C@@H]1O[C@@H]([C@@H](C)[C@H](O)[C@H](C)C(=O)[C@H](CC)[C@H]2O[C@]3(C=C[C@@H](O)[C@]4(CC[C@@](C)(C5CC[C@](O)(CC)[C@H](C)O5)O4)O3)[C@H](C)C[C@@H]2C)[C@@H](C)C[C@H]1C (stereo not given in full) | inactive: 1.93
O=C(Nc1ccccc1)c1cc([N+](=O)[O-])ccc1Cl | inactive: 0.788
CC1(C)CC[C@]2(C(=O)O)CC[C@]3(C)C(=CCC4[C@@]5(C)CC[C@@H](O)C(C)(C)C5CC[C@]43C)C2C1 (stereo not given in full) | inactive: 2.76
CC(C)(C)NCC(O)c1cc(O)cc(O)c1.CC(C)(C)NCC(O)c1cc(O)cc(O)c1.O=S(=O)(O)O (stereo not given) [Terbutaline hemisulfate] | inactive: -1.97
CC(C)(C)NCC(O)COc1cccc2[nH]c(=O)[nH]c12.Cl (racemic) | inactive: 1.82
Cc1oncc1C(=O)Nc1ccc(C(F)(F)F)cc1 [Leflunomide] | inactive: 1.71
CCCC1O[C@@H]2C[C@H]3[C@@H]4CCC5=CC(=O)C=C[C@]5(C)[C@H]4[C@@H](O)C[C@]3(C)[C@]2(C(=O)CO)O1 (stereo not given in full) [Budesonide] | -1.28 ± 3.3
OCCn1cc(-c2ccc3c(c2)CC/C3=N\O)c(-c2ccncc2)n1 | inactive: -0.722
CNC(=O)Nc1ccc(-c2nc(N3CC4CCC(C3)O4)c3cnn(C4CCC5(CC4)OCCO5)c3n2)cc1 | inactive: 0.691
O=C1O[C@H](C(O)CO)C(O)=C1O (stereo not given in full) | inactive: 0.717
COc1ccc(Cc2nccc3cc(OC)c(OC)cc23)cc1OC.Cl [Papaverine hydrochloride] | inactive: 0.229
CC1=NS(=O)(=O)c2cc(Cl)ccc2N1 [Diazoxide] | inactive: 2.8
Cn1c(=O)cc(N2CCC[C@@H](N)C2)n(Cc2ccccc2C#N)c1=O.O=C(O)c1ccccc1 [Alogliptin Benzoate] | inactive: 1.67
CCCCS(=N)(=O)CC[C@H](N)C(=O)O (stereo partly drawn) [L-Buthionine-sulfoximine] | inactive: 1.53
O[C@@H]1[C@H](O)CO[C@H]1O | inactive: 1.43
CC(C)c1nc(CN(C)C(=O)N[C@@H](CCN2CCOCC2)C(=O)N[C@H](CC[C@H](Cc2ccccc2)NC(=O)OCc2cncs2)Cc2ccccc2)cs1 [Cobicistat] | inactive: 1.48
